# The supplement of paper PMC12067093, “Discovery and optimisation of a covalent ligand for TRIM25 and its application to targeted protein ubiquitination” (Chemical Science, 2025)
# Chains of the proteins cited; added tags and fusions are not shown. Lines headed by an entry give the natural chain unless they say otherwise; changes in a name come on top.
# UniProt Q92598: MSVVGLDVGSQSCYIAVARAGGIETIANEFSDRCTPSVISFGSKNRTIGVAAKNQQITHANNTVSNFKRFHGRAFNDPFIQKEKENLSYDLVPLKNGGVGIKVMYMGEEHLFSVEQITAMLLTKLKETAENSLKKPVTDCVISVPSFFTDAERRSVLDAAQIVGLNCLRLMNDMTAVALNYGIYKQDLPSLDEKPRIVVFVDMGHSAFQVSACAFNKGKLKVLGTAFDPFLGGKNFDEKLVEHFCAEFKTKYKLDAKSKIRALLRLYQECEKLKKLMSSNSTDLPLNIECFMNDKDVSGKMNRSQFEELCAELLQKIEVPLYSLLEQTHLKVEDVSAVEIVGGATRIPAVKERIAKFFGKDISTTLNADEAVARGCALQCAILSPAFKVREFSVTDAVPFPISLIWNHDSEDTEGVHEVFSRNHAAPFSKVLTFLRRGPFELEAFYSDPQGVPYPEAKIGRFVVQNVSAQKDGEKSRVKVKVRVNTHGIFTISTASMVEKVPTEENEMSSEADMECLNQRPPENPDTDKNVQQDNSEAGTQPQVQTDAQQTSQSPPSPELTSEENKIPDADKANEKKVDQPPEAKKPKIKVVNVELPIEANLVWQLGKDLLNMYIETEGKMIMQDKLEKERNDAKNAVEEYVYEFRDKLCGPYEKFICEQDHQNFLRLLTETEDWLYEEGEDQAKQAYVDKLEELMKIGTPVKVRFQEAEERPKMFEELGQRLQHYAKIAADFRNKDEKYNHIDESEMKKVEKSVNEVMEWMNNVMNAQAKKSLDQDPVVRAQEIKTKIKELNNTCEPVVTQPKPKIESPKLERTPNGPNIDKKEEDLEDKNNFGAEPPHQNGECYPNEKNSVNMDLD
# UniProt Q9NQG7: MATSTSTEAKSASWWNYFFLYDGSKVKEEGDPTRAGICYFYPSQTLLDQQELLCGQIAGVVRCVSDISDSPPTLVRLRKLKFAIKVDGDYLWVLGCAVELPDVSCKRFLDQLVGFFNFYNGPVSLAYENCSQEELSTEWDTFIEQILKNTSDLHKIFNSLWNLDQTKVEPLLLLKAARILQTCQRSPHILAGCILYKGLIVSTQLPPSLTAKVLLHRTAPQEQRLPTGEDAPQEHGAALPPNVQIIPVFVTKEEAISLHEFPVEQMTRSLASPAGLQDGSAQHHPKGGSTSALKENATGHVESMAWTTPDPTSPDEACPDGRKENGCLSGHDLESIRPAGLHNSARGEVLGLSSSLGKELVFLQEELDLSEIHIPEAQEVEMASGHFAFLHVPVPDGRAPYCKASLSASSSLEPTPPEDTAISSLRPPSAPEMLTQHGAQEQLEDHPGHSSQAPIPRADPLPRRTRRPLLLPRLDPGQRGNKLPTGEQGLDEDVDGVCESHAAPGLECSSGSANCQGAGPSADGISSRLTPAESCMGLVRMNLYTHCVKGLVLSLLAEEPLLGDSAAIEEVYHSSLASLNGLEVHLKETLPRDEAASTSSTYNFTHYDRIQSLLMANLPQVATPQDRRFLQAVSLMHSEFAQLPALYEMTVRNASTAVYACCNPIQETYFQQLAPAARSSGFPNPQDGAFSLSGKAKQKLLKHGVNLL
# UniProt Q0VDF9: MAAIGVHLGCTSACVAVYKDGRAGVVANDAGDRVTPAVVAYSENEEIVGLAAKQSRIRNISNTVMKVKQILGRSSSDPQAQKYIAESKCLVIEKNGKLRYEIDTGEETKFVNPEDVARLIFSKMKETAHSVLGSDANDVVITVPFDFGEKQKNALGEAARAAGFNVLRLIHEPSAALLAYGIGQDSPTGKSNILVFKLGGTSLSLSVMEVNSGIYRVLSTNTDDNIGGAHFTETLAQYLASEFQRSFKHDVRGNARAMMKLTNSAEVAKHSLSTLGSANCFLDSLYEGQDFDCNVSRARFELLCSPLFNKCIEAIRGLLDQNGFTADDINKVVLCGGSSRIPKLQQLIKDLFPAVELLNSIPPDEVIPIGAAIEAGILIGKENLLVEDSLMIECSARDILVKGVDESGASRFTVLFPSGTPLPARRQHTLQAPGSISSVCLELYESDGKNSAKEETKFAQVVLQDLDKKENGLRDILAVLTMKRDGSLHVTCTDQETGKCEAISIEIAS
# UniProt O43390: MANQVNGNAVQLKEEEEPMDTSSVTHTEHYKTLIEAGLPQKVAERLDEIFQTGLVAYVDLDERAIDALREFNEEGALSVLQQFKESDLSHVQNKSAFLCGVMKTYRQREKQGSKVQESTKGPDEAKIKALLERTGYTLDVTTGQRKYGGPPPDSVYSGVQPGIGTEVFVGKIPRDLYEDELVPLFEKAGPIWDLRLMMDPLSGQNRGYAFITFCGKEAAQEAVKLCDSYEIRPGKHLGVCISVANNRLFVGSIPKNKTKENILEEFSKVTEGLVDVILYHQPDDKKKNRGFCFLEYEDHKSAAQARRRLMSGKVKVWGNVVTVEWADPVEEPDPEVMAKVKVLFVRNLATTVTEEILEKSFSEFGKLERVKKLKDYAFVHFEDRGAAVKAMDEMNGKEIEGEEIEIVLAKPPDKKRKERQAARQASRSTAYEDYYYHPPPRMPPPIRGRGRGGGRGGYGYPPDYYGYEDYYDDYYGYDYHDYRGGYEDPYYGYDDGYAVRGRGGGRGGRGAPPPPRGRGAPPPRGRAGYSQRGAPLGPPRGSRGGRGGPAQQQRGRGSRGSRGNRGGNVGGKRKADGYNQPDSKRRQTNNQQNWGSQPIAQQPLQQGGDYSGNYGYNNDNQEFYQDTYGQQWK
# UniProt P38646: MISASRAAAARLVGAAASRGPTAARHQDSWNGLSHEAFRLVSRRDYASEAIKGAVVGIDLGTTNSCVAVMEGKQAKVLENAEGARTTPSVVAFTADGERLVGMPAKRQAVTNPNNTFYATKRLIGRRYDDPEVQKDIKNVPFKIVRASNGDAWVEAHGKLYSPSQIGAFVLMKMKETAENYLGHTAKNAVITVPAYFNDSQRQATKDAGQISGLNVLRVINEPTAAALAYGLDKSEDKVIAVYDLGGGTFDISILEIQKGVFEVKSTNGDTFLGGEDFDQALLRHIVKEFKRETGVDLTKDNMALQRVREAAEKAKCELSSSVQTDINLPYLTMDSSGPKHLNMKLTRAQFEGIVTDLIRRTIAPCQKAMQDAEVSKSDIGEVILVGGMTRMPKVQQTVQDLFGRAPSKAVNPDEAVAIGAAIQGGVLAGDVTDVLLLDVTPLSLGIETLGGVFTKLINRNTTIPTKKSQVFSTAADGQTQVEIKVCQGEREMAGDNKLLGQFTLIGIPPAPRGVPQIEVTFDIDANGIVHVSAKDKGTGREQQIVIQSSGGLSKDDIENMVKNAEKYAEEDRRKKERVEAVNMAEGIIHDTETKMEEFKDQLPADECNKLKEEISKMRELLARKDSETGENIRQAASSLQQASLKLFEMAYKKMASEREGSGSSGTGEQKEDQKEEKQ
# UniProt Q8WVV9: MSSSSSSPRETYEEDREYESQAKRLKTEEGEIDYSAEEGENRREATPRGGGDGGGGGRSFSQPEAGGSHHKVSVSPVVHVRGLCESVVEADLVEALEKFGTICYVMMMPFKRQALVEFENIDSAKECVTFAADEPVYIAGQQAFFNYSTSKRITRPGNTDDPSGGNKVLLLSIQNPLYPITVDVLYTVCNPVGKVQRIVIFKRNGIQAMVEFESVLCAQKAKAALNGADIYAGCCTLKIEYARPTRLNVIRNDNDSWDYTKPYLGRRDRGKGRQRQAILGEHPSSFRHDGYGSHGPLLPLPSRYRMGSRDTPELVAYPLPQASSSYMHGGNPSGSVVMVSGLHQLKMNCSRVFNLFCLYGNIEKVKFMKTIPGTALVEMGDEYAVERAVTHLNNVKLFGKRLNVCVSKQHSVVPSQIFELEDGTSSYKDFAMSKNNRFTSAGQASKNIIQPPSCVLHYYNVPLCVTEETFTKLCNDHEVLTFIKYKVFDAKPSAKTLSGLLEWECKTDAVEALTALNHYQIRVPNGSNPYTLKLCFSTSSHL
# UniProt P50135: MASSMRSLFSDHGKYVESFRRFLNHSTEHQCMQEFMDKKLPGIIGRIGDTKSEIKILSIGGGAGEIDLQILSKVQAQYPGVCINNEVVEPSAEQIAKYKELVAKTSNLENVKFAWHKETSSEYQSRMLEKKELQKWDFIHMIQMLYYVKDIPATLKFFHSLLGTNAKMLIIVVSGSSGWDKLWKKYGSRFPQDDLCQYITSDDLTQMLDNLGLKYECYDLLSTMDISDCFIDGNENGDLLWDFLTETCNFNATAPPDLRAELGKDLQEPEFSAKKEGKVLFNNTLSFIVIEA
# UniProt Q14103: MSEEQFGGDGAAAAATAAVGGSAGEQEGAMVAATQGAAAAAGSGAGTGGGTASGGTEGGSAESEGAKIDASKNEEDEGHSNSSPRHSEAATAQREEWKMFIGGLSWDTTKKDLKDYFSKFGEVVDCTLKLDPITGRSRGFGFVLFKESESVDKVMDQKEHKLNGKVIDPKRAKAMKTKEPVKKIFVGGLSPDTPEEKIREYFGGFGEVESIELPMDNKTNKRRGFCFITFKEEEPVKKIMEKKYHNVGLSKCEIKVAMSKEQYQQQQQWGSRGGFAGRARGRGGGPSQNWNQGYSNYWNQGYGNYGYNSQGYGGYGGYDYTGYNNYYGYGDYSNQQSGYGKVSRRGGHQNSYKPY
# UniProt P51991: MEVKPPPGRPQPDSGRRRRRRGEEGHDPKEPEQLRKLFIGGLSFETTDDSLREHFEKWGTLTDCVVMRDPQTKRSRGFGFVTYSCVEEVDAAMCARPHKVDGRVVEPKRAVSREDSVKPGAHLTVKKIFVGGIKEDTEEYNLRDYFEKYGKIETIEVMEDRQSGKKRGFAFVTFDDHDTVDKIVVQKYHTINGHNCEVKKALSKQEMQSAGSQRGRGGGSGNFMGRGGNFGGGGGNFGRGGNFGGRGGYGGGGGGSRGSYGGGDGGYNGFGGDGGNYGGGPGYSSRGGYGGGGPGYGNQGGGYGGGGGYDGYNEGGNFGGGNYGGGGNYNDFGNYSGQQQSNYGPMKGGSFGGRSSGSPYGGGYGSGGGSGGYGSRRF
# This is one part of the list.
# Compound: Cc1cc(ccc1-c1ccccc1)C(=O)N1CCCN(CC1)C(=O)CCl [compound 10]
# Assay: probe-labelled cysteine peptide fold change vs DMSO (competition) (log2 fold change); higher = less target engagement (more negative = stronger competition)
# Settings: THP-1, incubation time: 4 h
# 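Also: competitive profiling in live THP-1 cells: cysteine peptides tagged with an iodoacetamide desthiobiotin (IA-DTB) probe, intensity after compound treatment relative to DMSO-treated cells.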
Target,probe-labelled cysteine peptide fold change (10 µM),probe-labelled cysteine peptide fold change (50 µM)
HTATSF1_O43719_328_DPEEADYCIQTLDGR (UniProt O43719),0.128,0.314
HSPH1_Q92598_245_LVEHFCAEFK (UniProt Q92598),0.0542,0.207
HPS4_Q9NQG7_547_MNLYTHCVK (UniProt Q9NQG7),0.0158,-0.348
HSPA14_Q0VDF9_304_FELLCSPLFNK (UniProt Q0VDF9),0.0269,0.154
HSPG2_P98160_4389_AQAGANTRPCPS (UniProt P98160),-0.652,-0.318
HNRNPR_O43390_214_GYAFITFCGK (UniProt O43390),-0.0464,-0.0135
HSPA9_P38646_608_MEEFKDQLPADECNK (UniProt P38646),-0.0596,-0.692
HNRNPLL_Q8WVV9_505_TLSGLLEWECKTDAVEALTALNHYQIR (UniProt Q8WVV9),-0.0924,-0.402
HSP90AA1_P07900_374_RVFIMDNCEELIPEYLNFIR (UniProt P07900),-0.163,-0.472
HTATSF1_O43719_328_LLLFDRHPDGVASVSFRDPEEADYCIQTLDGR (UniProt O43719),0.168,-0.0493
HNMT_P50135_31_FLNHSTEHQCMQEFMDK (UniProt P50135),-0.11,-0.319
HTT_P42858_1708_IQELSFSPYLISCTVINR (UniProt P42858),-0.256,0.155
HNRNPD_Q14103_226_GFCFITFKEEEPVK (UniProt Q14103),0.296,-0.0829
HNRNPA3_P51991_85+94_GFGFVTYSCVEEVDAAMCARPHK (UniProt P51991),-0.224,-0.281

# Part of the list above, bar-delimited.
Target | probe-labelled cysteine peptide fold change (10 µM) | probe-labelled cysteine peptide fold change (50 µM)
HSPH1_Q92598_245_LVEHFCAEFK (UniProt Q92598) | 0.0542 | 0.207
HPS4_Q9NQG7_547_MNLYTHCVK (UniProt Q9NQG7) | 0.0158 | -0.348
